# Laboratory results taken from patent US11925622B2, “Role of novel carbazole linked 1, 2, 3- triazole analogs in alleviating methylglyoxal-mediated late diabetic vascular complications” (priority 2021, dated 2024).
# Some entries share one result that the patent states for a list of compounds.
# Assays:
# THP-1 cell line = assay: Cytotoxicity, WST-1 assay in human monocytes; type: cell-based; conditions: 10-500 μM tested
# Method: (§1) Cytotoxicity analysis: The cytotoxic profile of the compounds was determined by using the MTT assay in hepatocytes (HepG2 cell line), and WST-1 assay in human monocytes (THP-1 cell line) as per the manufacturer's protocols. […] Doxorubicin treated cells were used as a positive control, while cells with culture medium served as negative control. Wells with culture medium served as a blank. Followed by the incubation, 20 μL of MTT were added in each well. […] The absorbance was measured by using 540, and 450 nm, respectively ([…] reader, Thermo Fisher, 319 Scientific, USA).
# HepG2 cell line = assay: Cytotoxicity, MTT assay in hepatocytes; type: cell-based, human; conditions: 10-500 μM tested
# Method: as §1
compound,measurement,setting,value
"Cc1ncc([N+](=O)[O-])n1CCn1cc(Cn2c3ccccc3c3ccccc32)nn1 [Compound 13, 9-((1-(2-(2-Methyl-5-nitro-1H-imidazol-1-yl)ethyl)-1H1,2,3-triazol-4-yl)methyl)-9H-carbazole]","cytotoxicity to monocytes (THP-1), in words",THP-1 cell line,non-toxic till 100 μM
same,"cytotoxicity to hepatocytes (HepG2), in words",HepG2 cell line,non-toxic till 100 μM
"c1ccc2c(c1)c1ccccc1n2Cc1cn(Cc2ccc(Cn3cc(Cn4c5ccccc5c5ccccc54)nn3)cc2)nn1 [Compound 15, 1,4-Bis ((4-((9H-carbazol-9-yl)methyl)-1H-1,2,3-triazol-1yl)methyl) benzene]","cytotoxicity to monocytes (THP-1), in words",THP-1 cell line,non-toxic till 100 μM
same,"cytotoxicity to hepatocytes (HepG2), in words",HepG2 cell line,non-toxic till 100 μM
